Reference: PMC6602300
Read-outs that look alike come from different tables or passages of the source. Results are given in words; binding and its absence hold for the method and conditions named. Binding seen in cells or lysates may run through a third protein. A yes stands for co-enrichment or nearness to the bait. Other partners may have been found. Tags and fused reporters may be left off the sequences shown. Blank lines part the entries; values can stand above or below the molecule they belong to.

Amino acid sequences for entries named in this document (tags omitted).
UniProt P63073: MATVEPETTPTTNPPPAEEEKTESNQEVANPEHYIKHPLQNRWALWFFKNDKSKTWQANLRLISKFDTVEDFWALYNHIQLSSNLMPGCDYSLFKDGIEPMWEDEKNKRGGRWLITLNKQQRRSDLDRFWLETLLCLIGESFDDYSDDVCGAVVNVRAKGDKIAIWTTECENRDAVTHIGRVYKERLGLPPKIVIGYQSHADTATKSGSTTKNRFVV
UniProt Q5SF07: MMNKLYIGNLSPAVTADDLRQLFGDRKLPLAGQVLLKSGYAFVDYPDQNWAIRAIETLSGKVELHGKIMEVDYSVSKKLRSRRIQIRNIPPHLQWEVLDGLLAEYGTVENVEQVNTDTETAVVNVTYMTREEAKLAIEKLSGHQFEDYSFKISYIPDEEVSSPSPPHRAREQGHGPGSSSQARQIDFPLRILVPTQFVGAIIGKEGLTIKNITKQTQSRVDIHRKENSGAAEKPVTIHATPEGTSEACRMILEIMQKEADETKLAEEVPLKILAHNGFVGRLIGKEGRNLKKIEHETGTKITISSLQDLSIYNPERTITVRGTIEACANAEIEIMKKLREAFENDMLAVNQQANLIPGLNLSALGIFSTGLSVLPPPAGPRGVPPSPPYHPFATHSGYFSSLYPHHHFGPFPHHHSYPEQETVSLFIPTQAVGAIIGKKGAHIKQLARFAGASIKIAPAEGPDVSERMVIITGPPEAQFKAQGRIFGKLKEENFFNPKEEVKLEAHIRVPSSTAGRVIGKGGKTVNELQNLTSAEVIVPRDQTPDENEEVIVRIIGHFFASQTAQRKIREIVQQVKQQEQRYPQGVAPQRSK
UniProt Q9CPN8: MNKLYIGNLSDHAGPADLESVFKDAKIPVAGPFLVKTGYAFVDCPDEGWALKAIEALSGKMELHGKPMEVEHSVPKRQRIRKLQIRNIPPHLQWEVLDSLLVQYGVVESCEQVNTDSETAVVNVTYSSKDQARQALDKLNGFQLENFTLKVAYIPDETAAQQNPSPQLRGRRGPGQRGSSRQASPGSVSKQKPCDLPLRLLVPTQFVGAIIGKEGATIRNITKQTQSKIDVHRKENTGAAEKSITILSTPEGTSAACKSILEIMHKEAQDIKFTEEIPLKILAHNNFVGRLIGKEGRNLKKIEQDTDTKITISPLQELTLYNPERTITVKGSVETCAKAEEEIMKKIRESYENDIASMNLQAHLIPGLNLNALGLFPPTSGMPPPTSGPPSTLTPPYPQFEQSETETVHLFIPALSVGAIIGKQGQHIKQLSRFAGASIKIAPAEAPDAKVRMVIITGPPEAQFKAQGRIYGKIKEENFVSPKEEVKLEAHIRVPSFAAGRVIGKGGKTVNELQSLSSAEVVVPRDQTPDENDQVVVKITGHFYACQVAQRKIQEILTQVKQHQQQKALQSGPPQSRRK
UniProt Q80U58: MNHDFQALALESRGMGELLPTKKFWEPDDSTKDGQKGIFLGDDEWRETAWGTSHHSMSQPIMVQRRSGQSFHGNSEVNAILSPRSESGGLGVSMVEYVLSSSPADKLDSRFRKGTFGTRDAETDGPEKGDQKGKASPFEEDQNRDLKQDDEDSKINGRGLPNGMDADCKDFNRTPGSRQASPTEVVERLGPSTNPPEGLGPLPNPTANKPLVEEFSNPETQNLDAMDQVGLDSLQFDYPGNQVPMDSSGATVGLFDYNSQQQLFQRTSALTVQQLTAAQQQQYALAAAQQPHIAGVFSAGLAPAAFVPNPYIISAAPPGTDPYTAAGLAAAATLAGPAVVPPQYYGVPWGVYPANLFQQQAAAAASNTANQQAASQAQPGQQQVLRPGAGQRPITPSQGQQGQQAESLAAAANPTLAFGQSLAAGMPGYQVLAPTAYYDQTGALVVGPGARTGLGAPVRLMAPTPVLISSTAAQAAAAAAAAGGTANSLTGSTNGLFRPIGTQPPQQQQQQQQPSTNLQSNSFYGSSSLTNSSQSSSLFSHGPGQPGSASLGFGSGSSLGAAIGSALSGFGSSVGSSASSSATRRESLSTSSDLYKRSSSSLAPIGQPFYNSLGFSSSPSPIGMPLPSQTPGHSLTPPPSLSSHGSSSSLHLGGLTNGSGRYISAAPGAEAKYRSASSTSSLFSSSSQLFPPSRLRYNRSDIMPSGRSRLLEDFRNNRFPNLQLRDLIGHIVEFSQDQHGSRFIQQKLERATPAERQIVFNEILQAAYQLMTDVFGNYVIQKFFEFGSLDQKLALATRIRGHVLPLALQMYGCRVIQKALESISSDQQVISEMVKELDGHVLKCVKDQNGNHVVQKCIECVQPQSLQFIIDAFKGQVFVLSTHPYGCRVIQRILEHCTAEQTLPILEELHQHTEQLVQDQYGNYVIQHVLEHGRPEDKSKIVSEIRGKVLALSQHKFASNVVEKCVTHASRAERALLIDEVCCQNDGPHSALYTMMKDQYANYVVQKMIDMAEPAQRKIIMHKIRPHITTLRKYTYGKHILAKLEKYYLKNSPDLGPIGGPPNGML
UniProt Q921F2: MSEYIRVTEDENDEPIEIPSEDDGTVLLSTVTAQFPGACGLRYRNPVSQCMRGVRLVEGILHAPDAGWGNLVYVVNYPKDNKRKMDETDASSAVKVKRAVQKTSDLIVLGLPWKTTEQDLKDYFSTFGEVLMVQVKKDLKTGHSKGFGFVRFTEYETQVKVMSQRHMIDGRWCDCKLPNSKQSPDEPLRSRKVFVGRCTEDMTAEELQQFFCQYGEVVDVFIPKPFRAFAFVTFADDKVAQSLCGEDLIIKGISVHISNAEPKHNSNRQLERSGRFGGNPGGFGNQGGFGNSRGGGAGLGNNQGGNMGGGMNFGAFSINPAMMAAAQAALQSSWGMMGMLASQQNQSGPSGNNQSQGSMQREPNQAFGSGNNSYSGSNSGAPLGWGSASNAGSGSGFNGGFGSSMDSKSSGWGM

What was measured:
[1] = molecular target: T1, HA-tagged OTU domain-containing protein 4 (HA–OTUD4) (human) (UniProt Q01804); assay: affinity purification with mass spectrometry; HA–OTUD4 purified from HEK293T lysate and held on HA-magnetic beads, incubated with ~5 mg protein of mouse cortex or cerebellum lysate at 4°C for 5 h; washed four times in PBS with 0.5% Triton X-100; hits found in at least two of three experiments per tissue and enriched ≥30 fold over control; only the target purified
T1 sequence: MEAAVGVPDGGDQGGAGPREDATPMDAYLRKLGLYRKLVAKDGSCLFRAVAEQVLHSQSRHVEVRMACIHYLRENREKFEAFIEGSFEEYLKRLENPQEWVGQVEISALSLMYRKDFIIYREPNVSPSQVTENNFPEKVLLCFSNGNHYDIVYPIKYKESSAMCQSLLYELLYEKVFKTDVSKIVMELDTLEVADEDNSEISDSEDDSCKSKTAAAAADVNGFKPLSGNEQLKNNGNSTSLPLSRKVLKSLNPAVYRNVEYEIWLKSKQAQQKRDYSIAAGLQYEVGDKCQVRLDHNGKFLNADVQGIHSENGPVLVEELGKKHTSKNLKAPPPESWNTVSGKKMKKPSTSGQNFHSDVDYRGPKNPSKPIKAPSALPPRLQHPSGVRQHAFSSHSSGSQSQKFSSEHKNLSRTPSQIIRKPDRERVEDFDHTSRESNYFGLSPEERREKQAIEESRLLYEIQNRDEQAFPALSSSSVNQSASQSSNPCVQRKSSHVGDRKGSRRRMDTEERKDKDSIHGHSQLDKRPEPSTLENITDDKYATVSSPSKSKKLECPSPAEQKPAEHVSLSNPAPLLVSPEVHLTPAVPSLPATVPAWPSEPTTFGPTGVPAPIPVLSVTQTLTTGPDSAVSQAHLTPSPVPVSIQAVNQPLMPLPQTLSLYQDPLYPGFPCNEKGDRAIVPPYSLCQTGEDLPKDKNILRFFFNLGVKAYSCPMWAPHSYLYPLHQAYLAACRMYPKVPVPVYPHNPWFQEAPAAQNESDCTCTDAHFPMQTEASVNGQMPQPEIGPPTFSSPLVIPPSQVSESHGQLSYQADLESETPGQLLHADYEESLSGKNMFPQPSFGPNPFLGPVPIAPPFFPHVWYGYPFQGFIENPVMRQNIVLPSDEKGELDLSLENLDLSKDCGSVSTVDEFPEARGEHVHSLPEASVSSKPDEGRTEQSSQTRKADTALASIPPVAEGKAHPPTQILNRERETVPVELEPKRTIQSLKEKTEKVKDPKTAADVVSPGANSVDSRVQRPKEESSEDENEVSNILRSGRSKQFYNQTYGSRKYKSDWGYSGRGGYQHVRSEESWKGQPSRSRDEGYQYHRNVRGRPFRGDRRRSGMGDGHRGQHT

[2] = molecular target: T1, HA-tagged OTU domain-containing protein 4 (HA–OTUD4) (human); assay: as above; remark: listed apart in the source

Molecule: Staufen of mouse brain
binding [1]: binds

Molecule: eIF4E of mouse brain (from UniProt P63073 1-217)
binding [1]: binds

Molecule: eIF4G of mouse brain
binding [1]: binds

Molecule: insulin-like growth factor 2 mRNA-binding protein 2 (IGF2BP2) of mouse brain (from UniProt Q5SF07 1-592)
binding [1]: binds

Molecule: insulin-like growth factor 2 mRNA-binding protein 3 (IGF2BP3) of mouse brain (from UniProt Q9CPN8 1-579)
binding [1]: binds

B1: ataxin-2 of mouse brain (protein, UniProt O70305 1-1285)
chain: MRSSTAAVQRPAAGDPEPRRPAGWAARRSLPRTARRGGRGGAVAYPSAGPPPRGPGAPPRGPRSPPCASDCFGSNGHGASRPGSRRLLGVCGPPRPFVVVLLALAPAATPARACPPGVRASPPRSGVSSSARPAPGCPRPACEPVYGPLTMSLKPQPQPPAPATGRKPGGGLLSSPGAAPASAAVTSASVVPAPAAPVASSSAAAGGGRPGLGRGRNSSKGLPQPTISFDGIYANVRMVHILTSVVGSKCEVQVKNGGIYEGVFKTYSPKCDLVLDAAHEKSTESSSGPKREEIMESVLFKCSDFVVVQFKDTDSSYARRDAFTDSALSAKVNGEHKEKDLEPWDAGELTASEELELENDVSNGWDPNDMFRYNEENYGVVSTYDSSLSSYTVPLERDNSEEFLKREARANQLAEEIESSAQYKARVALENDDRSEEEKYTAVQRNCSDREGHGPNTRDNKYIPPGQRNREVLSWGSGRQSSPRMGQPGPGSMPSRAASHTSDFNPNAGSDQRVVNGGVPWPSPCPSHSSRPPSRYQSGPNSLPPRAATHTRPPSRPPSRPSRPPSHPSAHGSPAPVSTMPKRMSSEGPPRMSPKAQRHPRNHRVSAGRGSMSSGLEFVSHNPPSEAAAPPVARTSPAGGTWSSVVSGVPRLSPKTHRPRSPRQSSIGNSPSGPVLASPQAGIIPAEAVSMPVPAASPTPASPASNRALTPSIEAKDSRLQDQRQNSPAGSKENVKASETSPSFSKADNKGMSPVVSEHRKQIDDLKKFKNDFRLQPSSTSESMDQLLSKNREGEKSRDLIKDKTEASAKDSFIDSSSSSSNCTSGSSKTNSPSISPSMLSNAEHKRGPEVTSQGVQTSSPACKQEKDDREEKKDTTEQVRKSTLNPNAKEFNPRSFSQPKPSTTPTSPRPQAQPSPSMVGHQQPAPVYTQPVCFAPNMMYPVPVSPGVQPLYPIPMTPMPVNQAKTYRAGKVPNMPQQRQDQHHQSTMMHPASAAGPPIVATPPAYSTQYVAYSPQQFPNQPLVQHVPHYQSQHPHVYSPVIQGNARMMAPPAHAQPGLVSSSAAQFGAHEQTHAMYACPKLPYNKETSPSFYFAISTGSLAQQYAHPNAALHPHTPHPQPSATPTGQQQSQHGGSHPAPSPVQHHQHQAAQALHLASPQQQSAIYHAGLAPTPPSMTPASNTQSPQSSFPAAQQTVFTIHPSHVQPAYTTPPHMAHVPQAHVQSGMVPSHPTAHAPMMLMTTQPPGPKAALAQSALQPIPVSTTAHFPYMTHPSVQAHHQQQL
binding [2]: binds

B4: helicase MOV10 of mouse brain (protein, UniProt P23249 1-1004)
chain: MPSKFSCRKLRETGQRFESFLAERGLDLETDRERLRTIYNHDFKPSYGTPAPGFSSMLYGMKIANLAFVTKTRVRFFKLDRWADVQLPEKRRIKPGSNISKQHRSLLARIFHDRAEYLHGKHGVDVEVQGPHEARDGQLLIHLDLNRKEVLTLRLRNGGSKPVTLTHLFPLCWTPQFVFYHGEQDLPCPLGPGESYELHIYCKTSIVGYFPATVLWELLGPGESGAEGAETFYIARFLAAVAHSPLAAQLKPTTPFKRPPRLTRNSVLTNRIEEGERPDRAKGYELELSLALGTYYPPILLRQLLPTLLQGPSIFTAPKEVAEIKAQLETTLKSRNYEVKLRLLLHLEELQMEHDIRHYDLDSVPMTWDPVDQNPRLLTLEVPGVAESRPSVLRGDHLFALLSSETQQDDPVTYKGFVHKVELDRVKLSFSTSLLSRFVDGLTFKVNFTFNRQPLRVQHRALELTGRWVLWPMLFPVASRGVSLLPSDVKFKLYDRSLESNPEQLQAMKHIVRGTTRPAPYIIFGPPGTGKTVTLVEAIKQVVKHLPKAHILACAPSNSGADLLCQRLRVHLPSSIYRLLAPSRDIRMVPEDIKTCCNWDAKKGEYVYPAKKHLQQYRVLITTLITASRLVSAQFPIDHFTHIFIDEAGHCMEPESLVAIAGLMDVKETGNPGGQLVLAGDPRQLGPVLRSPLALKHGLGYSLLERLLAYNSLYKKGPNGYDPQFITKLLRNYRSHPTILDIPNQLYYDGELQACADVVDRERFCRWEGLPQQGFPIIFHGVMGKDEREGNSPSFFNPEEAATVTSYLKQLLAPSSKKGKARLSPRNVGVISPYRKQVEKIRYCITKLDRELRGLDDIKDLKVGSVEEFQGQERSVILISTVRSSQSFVQLDLDFNLGFLKNPKRFNVAVTRAKALLIVVGNPLLLGHDPDWKTFLEFCKENGGYTGCPFPAKLDLQQGQDLLQGLSKLSPSTSGPRRHQNLPQEREGEGGLPLQVEPEWRNEL
binding [2]: binds

B5: T-cell-restricted intracellular antigen 1 (TIA1) of mouse brain (protein, UniProt P52912 1-386)
chain: MEDEMPKTLYVGNLSRDVTEALILQLFSQIGPCKNCKMIMDTAGNDPYCFVEFHEHRHAAAALAAMNGRKIMGKEVKVNWATTPSSQKKDTSSSTVVSTQRSQDHFHVFVGDLSPEITTEDIKAAFAPFGRISDARVVKDMATGKSKGYGFVSFFNKWDAENAIQQMGGQWLGGRQIRTNWATRKPPAPKSTYESNTKQLSYDEVVSQSSPNNCTVYCGGVTSGLTEQLMRQTFSPFGQIMEIRVFPDKGYSFVRFSSHESAAHAIVSVNGTTIEGHVVKCYWGKETLDMINPVQQQNQIGYPPTYGQWGQWYGNAQQIGQYVPNGWQVPAYGVYGQPWSQQGFNQTQSSAPWMGPNYSVPPPQGQNGSMLPSQPAGYRVAGYETQ
binding [2]: binds

Results, then the molecule that gave them:

binding [1]: binds
Molecule: Pumilio 2 of mouse brain (from UniProt Q80U58 1-1066)

binding [1]: binds
Molecule: TDP-43 of mouse brain (from UniProt Q921F2 1-414)

binding [1]: binds
Molecule: eIF4A of mouse brain

binding [2]: binds
B2: TIA1-related protein (TIAR) of mouse brain (protein, UniProt P70318 1-392)
chain: MMEDDGQPRTLYVGNLSRDVTEVLILQLFSQIGPCKSCKMITEQPDSRRVNSSVGFSVLQHTSNDPYCFVEFYEHRDAAAALAAMNGRKILGKEVKVNWATTPSSQKKDTSNHFHVFVGDLSPEITTEDIKSAFAPFGKISDARVVKDMATGKSKGYGFVSFYNKLDAENAIVHMGGQWLGGRQIRTNWATRKPPAPKSTQETNTKQLRFEDVVNQSSPKNCTVYCGGIASGLTDQLMRQTFSPFGQIMEIRVFPEKGYSFVRFSTHESAAHAIVSVNGTTIEGHVVKCYWGKESPDMTKNFQQVDYSQWGQWSQVYGNPQQYGQYMANGWQVPPYGVYGQPWNQQGFGVDQSPSAAWMGGFGAQPPQGQAPPPVIPPPNQAGYGMASFPTQ

binding [2]: binds
B3: Purβ of mouse brain (protein, UniProt O35295 1-324)
chain: MADGDSGSERGGGGGGGGGPGGFQPAPRGGGGGGGGPGGEQETQELASKRLDIQNKRFYLDVKQNAKGRFLKIAEVGAGGSKSRLTLSMAVAAEFRDSLGDFIEHYAQLGPSSPEQLAAGAEEGGGPRRALKSEFLVRENRKYYLDLKENQRGRFLRIRQTVNRGGGGFGGGPGPGGLQSGQTIALPAQGLIEFRDALAKLIDDYGGDEDELAGGPGGGAGGPGGGLYGELPEGTSITVDSKRFFFDVGCNKYGVFLRVSEVKPSYRNAITVPFKAWGKFGGAFCRYADEMKEIQERQRDKLYERRGGGSGGGDESEGEEVDED
